Reference: publication PMC5461414

Biological target: T1, MdHY5-GST (Malus x domestica) (UniProt L0MZN5)
T1 sequence (looked up, limits assumed): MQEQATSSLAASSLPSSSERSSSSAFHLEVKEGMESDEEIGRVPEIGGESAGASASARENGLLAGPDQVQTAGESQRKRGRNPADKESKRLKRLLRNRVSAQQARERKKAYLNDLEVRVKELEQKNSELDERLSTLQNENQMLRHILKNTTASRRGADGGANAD
Assay: EMSA
Conditions: 1x binding buffer with 2.5% glycerol, 10 mM EDTA, 5 mM MgCl2, 50 mM KCl; 24 °C, 25 min; pH not stated (LightShift Chemiluminescent EMSA kit); recombinant protein; protein details: GST (pGEX-4T-1); label: biotin

Sequence | binding result
GTCGACACCACGTGGAGTTAAATT (double strand) [MdMYB10 promoter G-box-2 probe] | binds
GTCGACGAGCCAATTGCGTCGACAG (double strand) [MdHY5 promoter E-box probe] | binds

For at least one entry, the source does not settle the construct or the ends of the probe. Tags and fusion partners may be left off the protein sequences shown.
